These are yes or no findings as the source states them, for the method shown. In cells and extracts the contact can be indirect. Some binding calls cover weakened binding; strength is not graded here. Sequences can lack the tags named with a protein.
Tests used:
[1] = target: T1, EYFP-IL20RB-Extr-HA (extracellular domain of IL20RB, from pEYFPC1-IL20RB-Extr-HA) (human) (UniProt Q6UXL0); experiment: co-IP; lysates of transfected COS-7 cells, 4 μg anti-HA antibody 1 h at 4 °C, Protein A-Agarose 12 h at 4 °C, washed 4 times with PBS; western blot for FLAG and HA
T1 sequence: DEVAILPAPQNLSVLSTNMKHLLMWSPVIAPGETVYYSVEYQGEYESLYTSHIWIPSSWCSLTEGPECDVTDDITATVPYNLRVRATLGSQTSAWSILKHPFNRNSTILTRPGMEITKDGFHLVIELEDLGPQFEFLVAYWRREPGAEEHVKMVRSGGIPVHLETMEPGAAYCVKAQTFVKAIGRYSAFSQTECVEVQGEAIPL

[2] = target: T2, EYFP-IL20RB-HA (interleukin 20 receptor subunit b, from pEYFPC1-IL20RB-HA) (human) (UniProt Q6UXL0); experiment: as above
T2 sequence: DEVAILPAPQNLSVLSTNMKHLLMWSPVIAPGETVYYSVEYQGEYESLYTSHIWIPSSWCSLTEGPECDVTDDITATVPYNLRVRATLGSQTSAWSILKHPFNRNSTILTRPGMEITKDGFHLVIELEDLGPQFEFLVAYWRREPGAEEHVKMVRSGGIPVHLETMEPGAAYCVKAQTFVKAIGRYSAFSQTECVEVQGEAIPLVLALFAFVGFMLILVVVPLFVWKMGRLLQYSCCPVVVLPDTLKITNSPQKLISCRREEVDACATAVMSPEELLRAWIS

[3] = target: T2, EYFP-IL20RB-HA (interleukin 20 receptor subunit b, from pEYFPC1-IL20RB-HA) (human); experiment: FRET or BRET; COS-7 cells on coverslips co-transfected with pCFPN1-ROP18-3×FLAG and pEYFPC1-IL20RB-HA for 48 h; confocal microscope, sensitized emission; FRET efficiency and intermolecular distance against CFP+YFP (negative) and a CFP-YFP fusion (positive)

Measured: binding

B1: CFP-ROP18-3×FLAG (Toxoplasma gondii rhoptry protein 18, type I, from pCFPN1-ROP18-3×FLAG) (enzyme, UniProt Q2PAY2 1-554)
chain: MFSVQRPPLTRTVVRMGLATLLPKTACLAGLNVALVFLLFQVQDGTGITLGPSKLDSKPTSLDSQQHVADKRWLATVGHYKHLAGATESTRDVSLLEERAQHRVNAQETNQRRTIFQRLLNLLRRRERDGEVSGSAADSSSRPRLSVRQRLAQLWRRAKSLFKRGIRRYFPQGRNRQRSLRAQRRRSELVFEKADSGCVIGKRILAHMQEQIGQPQALENSERLDRILTVAAWPPDVPKRFVSVTTGETRTLVRGAPLGSGGFATVYEATDVETNEELAVKVFMSEKEPTDETMLDLQRESSCYRNFSLAKTAKDAQESCRFMVPSDVVMLEGQPASTEVVIGLTTRWVPNYFLLMMRAEADMSKVISWVFGDASVNKSEFGLVVRMYLSSQAIKLVANVQAQGIVHTDIKPANFLLLKDGRLFLGDFGTYRINNSVGRAIGTPGYEPPERPFQATGITYTFPTDAWQLGITLYCIWCKERPTPADGIWDYLHFADCPSTPELVQDLIRSLLNRDPQKRMLPLQALETAAFKEMDSVVKGAAQNFEQQEHLHTE
binds: all assays above

Source: paper PMC7412674
